# From PubChem BioAssay AID2685 (National Center for Advancing Translational Sciences (NCATS), 2010)
# The list shows a part of the results. Further columns of the screen follow, without active or inactive calls. Compounds called inactive in the main read-out are mostly missing here. Potencies come from curve fits of mixed quality, noted in brackets.
# Assay: qHTS Assay for Lipid Storage Modulators in Drosophila S3 Cells;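 on cell number change: cells counted by Cell Tracker Red CMTPX staining in the red channel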
# Conditions: BODIPY lipid droplet fluorescence, 18-24 h; for cell number change: measured here: cell count max response, cells fed with added oleic acid
# How it was run: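 Drosophila S3 cells loaded with oleic acid (400 uM, as added) and compounds at several concentrations; lipid droplets imaged by 488-nm laser-scanning cytometry, 500–530 nm intensity and object ratio to cell channel. Percent activity normalized to 20 uM Triacsin C.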
# [1] = measured here: cell number channel AC50, cells fed with added oleic acid
# [2] = measured here: lipid fluorescence (Fed channel) AC50, cells fed with added oleic acid
SMILES,cell number change [%],AC50 [1],AC50 [2]
CCCCOc1cccc(C(=O)NNC(=S)NC2CCCCC2)c1,-33.5,"29.1 µM [falling, single point]","20.6 µM [falling, single point]"
Cc1cc(C(=O)COc2ccc3ccc(=O)oc3c2)c(C)n1C,110,"16.4 µM [rising, partial curve]",–
COc1cc(C(=O)NCc2ccccc2)cc(Br)c1OC,-1.09,–,"1.46 µM [rising, partial curve, poor fit]"
Cc1cccc(OCC(=O)OC(C)C(=O)Nc2ccc(S(=O)(=O)N3CCCCC3)cc2)c1 (stereo unspecified),0.209,–,"6.51 µM [falling, single point]"
CCCCOC(=O)C1C2C=C[C@]3(CN(CCCOC)C(=O)[C@H]13)O2 (stereo partly specified),4.24,–,–
CCN1CCN(C(=O)CCc2nnc3ccc(N4CCN(c5cccc(OC)c5)CC4)nn23)CC1,-6.87,–,"1.3 µM [falling, partial curve]"
Cc1nc(NC(=O)CSc2nnc(C)n2CC2CCCO2)sc1C (stereo unspecified),31,"6.51 µM [rising, partial curve]",–
Cc1ccc(C2C(C#N)=C(N)Oc3n[nH]c(-c4cccs4)c32)cc1 (stereo unspecified),-48.8,"14.6 µM [falling, partial curve]","16.4 µM [falling, single point]"
CN(C(=O)CSc1ccncc1)C1CCCN(Cc2ccccc2F)C1 (stereo unspecified),-36.9,"2.91 µM [falling, partial curve]",–
COc1ccc2cc3cc(C(=O)N4CCN(C5CCCCC5)CC4)oc3nc2c1,-19.8,–,–
COCn1c(-c2cccc(Br)c2)nc2ccccc21,-8.8,–,"6.51 µM [rising, single point]"
N#CC1=C(N)Oc2cc(N)ccc2C1c1ccccc1Cl (stereo unspecified),-4.21,–,–
Cc1nnc(SCC(=O)NC2CCCCCC2)n1N,-18.4,–,–
COc1cccc(N2CCN(CC(=O)NC3=Nc4ccccc4N=C(C)C3c3ccccc3)CC2)c1 (stereo unspecified),4.65,–,"0.058 µM [falling, full curve, poor fit]"
Cc1cc(C(=O)NCC(=O)OCC(=O)N(C2CCCCC2)C2CCCCC2)ccc1[N+](=O)[O-],4.31,–,"0.00461 µM [falling, full curve, poor fit]"
CCN(CC)c1ccc(/C=N/NC(=O)CNC(=O)/C=C/c2ccco2)cc1,7.62,–,–
Cc1ccc(NC(=O)NC(=O)c2ccccc2)cc1F,10.3,–,–
Cn1c(=O)c2c(nc(NCc3cccnc3)n2Cc2ccc(Cl)cc2)n(C)c1=O,137,"0.411 µM [rising, partial curve, poor fit]","0.461 µM [rising, full curve]"
NC(=O)/C(=N\OC(=O)c1ccco1)c1nc(-c2ccc(Br)cc2)cs1,1.38,"2.06 µM [rising, partial curve, poor fit]",–
COc1cc(NC(=O)CSc2ncnc3sc4c(c23)CCC(C)C4)c(C(=O)O)cc1OC (stereo unspecified),4.96,–,"0.58 µM [falling, single point]"
CN(C)C(=O)CSc1nnc(-c2ccc(F)cc2)c2ccccc12,21.4,–,"1.64 µM [rising, full curve, poor fit]"
COCCSc1nnc(NC(=O)C2CC(=O)N(c3ccc(C)cc3)C2)s1 (stereo unspecified),-20.7,–,–

SMILES,cell number change [%],AC50 [1],AC50 [2]
c1ccc(Oc2cccc(OCCCn3cncn3)c2)cc1,-13.6,–,"6.51 µM [rising, partial curve, poor fit]"
NS(=O)(=O)c1ccc(CCNc2nc(CN3CCOCC3)nc3sc4c(c23)CCC4)cc1,-10.2,–,–
CCOc1ccc2c(CC)cc(=O)oc2c1OCC,26.4,–,"2.91 µM [rising, partial curve]"
CCOC(=O)c1cc2sccc2n1CC(=O)Nc1ccc(OC)cc1OC,121,"8.2 µM [rising, partial curve]","10.3 µM [rising, partial curve]"
O=C(/C=C/c1ccc(F)cc1)NCCNC(=O)/C=C/c1ccc(F)cc1,-3.43,–,"0.231 µM [falling, partial curve]"
O=C(NCCc1ccc(Cl)cc1)C1CCCN(S(=O)(=O)N2CCCCCC2)C1 (stereo unspecified),19.9,"0.0461 µM [rising, full curve, poor fit]",–
CCC(=O)N1CCc2cc(S(=O)(=O)CCC(=O)NCCc3ccccc3)ccc21,–,"6.51 µM [falling, single point]","6.51 µM [falling, single point]"
Cc1occc1-c1nnc(SCC(=O)N2CCN(c3ccccc3F)CC2)n1C,-6.58,"0.13 µM [rising, full curve, poor fit]","11.6 µM [rising, partial curve, poor fit]"
COc1ccc(/C(O)=C2/C(=O)C(=O)N(c3ncccn3)C2c2ccc(OC)cc2)cc1 (stereo unspecified),-33,"20.6 µM [falling, single point]","3.66 µM [falling, full curve]"
Cc1ccccc1CSc1nnc(-c2ccccc2)c(=O)[nH]1,2.05,"0.651 µM [falling, single point]",–
COc1ccc(Cl)cc1NC(=S)NCc1ccco1,18.8,–,"29.1 µM [rising, single point]"
O=C(N/N=C/c1ccc(OC(=O)c2cccs2)cc1)c1ccccn1,-2.48,–,"29.1 µM [rising, single point]"
CCC1Sc2ccc(S(=O)(=O)CCC(=O)NCc3ccco3)cc2NC1=O (stereo unspecified),-7.58,–,–
COc1cccc(-c2ccc(-c3noc(-c4cccs4)n3)c(OC)n2)c1,26.8,–,"0.58 µM [falling, single point]"
Cc1cc(N2CCN(C)CC2)nc(=S)[nH]1,-0.611,–,–
CCOc1ccccc1C(=O)NCC(=O)OCC(=O)c1ccc2c(c1)OCCO2,2.94,–,"5.17 µM [rising, full curve, poor fit]"
Cc1cc(C)n(Cc2ccc(Cl)c(Cl)c2)c(=O)c1S(=O)(=O)c1ccccc1,9.25,–,"6.51 µM [rising, single point]"
Cn1c(=O)oc2cc(S(=O)(=O)Nc3ccc(Cl)cc3)ccc21,-20.1,–,"29.1 µM [falling, single point]"
Cc1cccc2c1nc(-c1ccccc1)n1cnnc21,–,"0.461 µM [rising, full curve]","0.58 µM [rising, full curve]"
Cc1cccc(C(=O)N=C2SC3CS(=O)(=O)CC3N2c2ccccc2)c1 (stereo unspecified),23.2,–,"29.1 µM [rising, single point]"
CCOc1ccc(C2CC(c3ccc(CC)cc3)n3nc(N)nc3N2)cc1 (stereo unspecified),–,–,"0.731 µM [falling, single point]"
Cc1ccc(Nc2c(-c3ccc(C)o3)nc3cnccn23)cc1,0.79,–,"7.31 µM [rising, partial curve]"

SMILES,cell number change [%],AC50 [1],AC50 [2]
COc1cc(C(=O)OCC(=O)N2CCNC2=O)cc(Cl)c1OC,30.1,"14.6 µM [rising, single point]",–
CC(Oc1cccc(Cl)c1)C(=O)N1CCN(c2ncccn2)CC1 (stereo unspecified),-5.21,–,"0.651 µM [falling, single point]"
O=C(CCCOc1ccccc1)Nc1ccc(S(=O)(=O)Nc2ccccn2)cc1,-9.86,–,–
Cc1nc(NC(=O)COc2ccccc2)sc1C(=O)Nc1ccccc1,–,–,"6.51 µM [rising, single point]"
CCCOc1cccc(C(=O)O)c1,5.75,–,"0.00517 µM [falling, full curve, poor fit]"
CCCOP(=O)(c1ccc(N(C)C)cc1)C(O)c1ccc(Cl)cc1 (stereo unspecified),11.6,–,"29.1 µM [falling, single point]"
CN(CC(=O)Nc1ccccc1Sc1ccccc1)C1CCCCC1,-25.4,–,"20.6 µM [falling, single point]"
CC1(C)CC(=O)C(C(=O)/C=C/c2ccco2)C(=O)C1,-17.4,–,"6.51 µM [falling, partial curve]"
CCOP(=O)(c1ccccc1)C1(O)CCCCC1 (stereo unspecified),-23.7,–,"23.1 µM [falling, partial curve]"
CCn1c(SCC(=O)OCc2ccccc2)nnc1-c1ccco1,-10.4,–,–
CCCOc1ccc(CNC(=O)C2CCN(C(=O)N3CCOc4ccccc43)CC2)cc1,10.1,–,"3.26 µM [rising, full curve]"
CC1(C)Cc2ccccc2C(=NCCCC(=O)O)N1,6.56,–,–
COC(=O)C1=C(C)N(Cc2ccccc2)C(=NCc2ccc(OC)cc2)N[C@H]1c1ccccc1,-9.36,–,"29.1 µM [falling, single point]"
O=C(CSCc1cnn(-c2ccccc2)c1-n1cccc1)N1CCN(Cc2ccccc2)CC1,-17.6,–,–
Nc1nc(NCc2ccccc2)n(-c2ccccc2)n1,25.2,–,"8.2 µM [rising, partial curve, poor fit]"
Cn1cccc1C(=O)NC(=O)COC(=O)CNC(=O)CNC(=O)c1ccc(Cl)cc1Cl,-28,–,"29.1 µM [falling, single point]"
O=C(NNC(=O)C1CC1)Nc1ccc(Cl)cc1,–,–,"0.58 µM [falling, single point]"
COc1cc(C(=O)Nc2ccc(Cl)c([N+](=O)[O-])c2)cc(OC)c1OC,2.48,–,–
COc1ccc(CCN2CCCn3c2nc2c3c(=O)n(CC(N)=O)c(=O)n2C)cc1OC,–,–,"4.11 µM [falling, single point]"
COc1ccc(NC(=S)NC(=O)/C=C/c2ccccc2)cc1,-14.6,–,"29.1 µM [falling, single point]"
CN(C)CC(O)CN1C(=O)N(CN2C(=O)N(CC(O)CN(C)C)C(=O)C2(C)C)C(C)(C)C1=O (stereo unspecified),-1.58,–,–

# Quoted from the listing.
# Value for CC1(C)Cc2ccccc2C(=NCCCC(=O)O)N1 under cell number change [%]: 6.56
# Value for Nc1nc(NCc2ccccc2)n(-c2ccccc2)n1 under cell number change [%]: 25.2
# Value for CN(CC(=O)Nc1ccccc1Sc1ccccc1)C1CCCCC1 under cell number change [%]: -25.4
# Value for COc1ccc(NC(=S)NC(=O)/C=C/c2ccccc2)cc1 under AC50 [2]: 29.1 µM [falling, single point]
# Value for COc1cc(C(=O)OCC(=O)N2CCNC2=O)cc(Cl)c1OC under cell number change [%]: 30.1
